Data taken from PMC5640644, “HDX reveals the conformational dynamics of DNA sequence specific VDR co-activator interactions” (Nature Communications, 2017).
For at least one entry, the source does not settle the construct or the ends of the probe. For some assays here: At least one verdict rests on a figure or table, not on a statement of the authors.

The chains behind the UniProt entries cited, without tags or fusion partners. Where a name states a change or a piece, a line headed by the entry shows the natural chain unless it says otherwise.
UniProt P19793: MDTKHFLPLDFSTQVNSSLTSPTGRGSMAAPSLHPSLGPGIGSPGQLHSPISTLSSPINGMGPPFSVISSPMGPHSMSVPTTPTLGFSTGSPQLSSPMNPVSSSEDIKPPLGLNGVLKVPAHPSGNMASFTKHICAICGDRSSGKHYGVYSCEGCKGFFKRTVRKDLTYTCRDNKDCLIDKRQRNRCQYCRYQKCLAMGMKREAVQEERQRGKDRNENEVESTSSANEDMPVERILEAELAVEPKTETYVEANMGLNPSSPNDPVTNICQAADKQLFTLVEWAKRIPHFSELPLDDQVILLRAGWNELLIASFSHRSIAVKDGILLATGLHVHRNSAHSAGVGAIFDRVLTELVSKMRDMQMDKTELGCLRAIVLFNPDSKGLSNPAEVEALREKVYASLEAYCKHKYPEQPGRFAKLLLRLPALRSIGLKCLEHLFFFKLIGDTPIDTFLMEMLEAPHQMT

Experiments:
[1] = system: VDR (His-hVDR, del151-190) + RXRα (Flag-hRXRα); test: HDX-MS; details: HDX: heterodimer ~10 uM, DNA 1.5x molar ratio, ligand 10x excess, protein buffer 50 mM Tris pH 8.0, 150 mM NaCl, 10% glycerol, 2 mM DTT, recombinant protein, protein details: His,Flag
[2] = target: RXRα (Flag-hRXRα) (Homo sapiens) (UniProt P19793); test: HDX-MS; details: Cmpd1, no VDR; HDX: heterodimer ~10 uM, DNA 1.5x molar ratio, ligand 10x excess; protein buffer 50 mM Tris pH 8.0, 150 mM NaCl, 10% glycerol, 2 mM DTT; recombinant protein; residues 1-462; protein details: Flag
[3] = system: VDR (His-hVDR, del151-190) + RXRα (Flag-hRXRα); test: EMSA; details: ligand-free; HDX: heterodimer ~10 uM, DNA 1.5x molar ratio, ligand 10x excess; protein buffer 50 mM Tris pH 8.0, 150 mM NaCl, 10% glycerol, 2 mM DTT; recombinant protein; protein details: His,Flag

Sequence | binding result ([1]; 1,25D3) | binding result ([1]; Cmpd3) | binding result [2] | binding result ([1]; Cmpd1) | binding result ([1]; Cmpd2) | binding result [3]
CTAGGTGAATGAGGACAT (double strand) [BGLAP VBS (rat)] | binds | binds |  |  |  | 
CGTAGGTCAATCAGGTCACGTCGT (double strand) [DR3 VBS] | binds |  | binds | binds | binds | binds
CTAGCTCCCGAGGTCAGCGACGGCGCAGG (double strand) [DR3 half-site VBS] | binds |  |  | binds | binds | binds
CAAGGGGTAGTGAGGTCAAAAGCA (double strand) [TRPV6 VBS] | binds | binds |  |  |  | 
GGTGACTCACCGGGTGAACGGGGGCA (double strand) [BGLAP* VBS (human)] | binds |  |  |  |  | 
